Earlier results, collected in US12162997B2, “Facile assembly of soft nanoarchitectures and co-loading of hydrophilic and hydrophobic molecules via flash nanoprecipitation” (Northwestern University, priority 2016, dated 2024).
For at least one compound, name, drawing or mass did not settle the structure.

Tested on: allograft survival
Details: mice; cited from earlier work

Structure (SMILES): CO[C@H]1C[C@@H]2CC[C@@H](C)[C@@](O)(O2)C(=O)C(=O)N2CCCC[C@H]2C(=O)O[C@H]([C@H](C)C[C@@H]2CC[C@@H](O)[C@H](OC)C2)CC(=O)[C@H](C)/C=C(\C)[C@@H](O)[C@@H](OC)C(=O)[C@H](C)C[C@H](C)/C=C/C=C/C=C/1C [Rapamycin, rapamycin]
- effective dose for sustained allograft survival: 1.5-3 mg/kg/day
